The filed quantity is “Percent Effect” (%). The record does not define 0% and 100%; most values in the screen are far below 50% and negative numbers occur (in some assays of this library far below -100). Compounds were drawn at random from those tested, without regard to their results.

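Whole-cell assay for inhibitors of Mycobacterium tuberculosis growth, labelled Cornell in the record; the read-out is not stated. The concentration is filed as 10 mM, unlikely as a test dose, so the dose is not known. Higher means stronger inhibition (inferred from two other growth screens of the library). Size under these conditions: about 53,000 compounds, about 900 of them at 50% or above in at least one test.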

{"compound": "COc1ccc2c(c1)OCC(CNC(=O)NC(C)(C)C)C2", "stereo": "centres unmarked", "effect": -26.76}
{"compound": "Cc1nc(N2CCN(C)CC2)ncc1C(=O)N1CCC(O)(CO)CC1", "effect": 11.2}
{"compound": "Cc1ncc(CN2CCCC(c3cc(C(N)=O)[nH]n3)C2)s1", "stereo": "centres unmarked", "effect": -25.22}
{"compound": "Cn1cc(C(O)CNC(=O)c2ccc(F)cc2Cl)cn1", "stereo": "centres unmarked", "effect": -6.753}
{"compound": "[H][C@]12CC=C(CN3CCCn4nc(C(=O)NCCO)cc4C3)[C@]([H])(C1)C2(C)C", "effect": -5.81}
{"compound": "O=C(CCc1nnc(-c2ccccc2)o1)N1CCCC1c1ccc[nH]1", "stereo": "centres unmarked", "effect": 32.13}
{"compound": "CC1CN(c2ncccc2C(=O)N[C@@H]2CCCc3ccccc32)CCN1", "stereo": "some centres unmarked", "effect": -3.847}
{"compound": "CCOCCNC(=O)C1CCC(=O)N(CCc2ccc(Cl)cc2)C1", "stereo": "centres unmarked", "effect": 21.5}
{"compound": "CN(C)CCCNCCC(c1ccccc1)C1CCOC(C)(C)C1.O=C(O)C(=O)O", "stereo": "centres unmarked", "effect": 38.31}
{"compound": "Cc1nnc(N2CCOC(C)(C(=O)N(C)C)C2)c2ccccc12", "stereo": "centres unmarked", "effect": 15.93}
{"compound": "[H][C@]12CC[C@]([H])(CN(S(=O)(=O)N(C)C)C1)N(Cc1ccc3c(c1)OCCO3)C2", "effect": -5.844}
{"compound": "CC1CCN(c2ncc(C#N)c(N)n2)CC1", "effect": -7.987}
{"compound": "CN1C[C@@H](NC(=O)CC(C)(C)C)C[C@H]1c1nc(-c2cnccn2)no1", "effect": -6.634}
{"compound": "Cc1nc[nH]c1-c1nccn1-c1ccc(C(N)=O)c(N2CCCC2)c1", "effect": -18.59}
{"compound": "COCCNC(=O)c1cc2c(c3ccccc3n2C)n1C(=O)N(C)C", "effect": 18.89}
{"compound": "Cc1ccc(-n2cnnn2)cc1NCC(=O)Nc1cc(F)ccc1F", "effect": 11.17}
{"compound": "CCOC(=O)CN1CC(c2nc(-c3ccsc3)no2)C1.O=C(O)C(=O)O", "effect": 51.67}
{"compound": "NS(=O)(=O)CCCC(=O)N1CCC2(CC1)c1ccccc1CC2O", "stereo": "centres unmarked", "effect": 10.02}
{"compound": "Cn1ccnc1CN1CCC2(CCCN2c2ncccn2)CC1.O=C(O)C(F)(F)F", "effect": -25.71}
{"compound": "COc1ccccc1NC(=O)NCC(O)(c1ccccc1)C1CC1", "stereo": "centres unmarked", "effect": -20.34}
{"compound": "CC(C)(C)N1CC(C(=O)N2CCN(CCn3cccc3)CC2)CC1=O", "stereo": "centres unmarked", "effect": 14.09}
{"compound": "Cc1cnn(CC2CCCN2C(=O)c2cc3c(F)cccc3[nH]2)c1", "stereo": "centres unmarked", "effect": 22.14}
{"compound": "Cc1cc(C)n(CC(=O)N(CC2CN(C)CCO2)c2nccs2)n1", "stereo": "centres unmarked", "effect": 20.93}
{"compound": "O=C1CSC(C(F)(F)F)c2c(O)nn(C3CCCC3)c2N1", "stereo": "centres unmarked", "effect": 14.8}
{"compound": "CCS(=O)(=O)N1CCc2c(COCCN(C)C)cncc2C1.O=C(O)C(F)(F)F.O=C(O)C(F)(F)F", "effect": -9.715}
{"compound": "COc1cccc2c1OCC(C(=O)N1CCC(NS(C)(=O)=O)CC1)C2", "stereo": "centres unmarked", "effect": -7.495}
{"compound": "Cc1nc(O)c2nnn(C[C@H]3CCCN3C(=O)c3ccccc3C)c2n1", "effect": -52.77}
{"compound": "Cc1ccc(O)c(CN2CCc3nc(-c4cccnc4)nc(O)c3C2)c1", "effect": 18.91}
{"compound": "CC(C)CN1Cc2nc(N3CCCC3)ncc2C1=O", "effect": -32.23}
{"compound": "O=C(O)C(F)(F)F.O=C1NCCN(CC2CC2)C12CCN(Cc1ccccc1)CC2", "effect": -33.53}
{"compound": "CCOCC1CN(S(=O)(=O)Cc2ccccc2)Cc2nccn2C1", "stereo": "centres unmarked", "effect": 3.802}
{"compound": "O=C(O)c1cncc(Cc2cccc(F)c2)c1", "effect": 2.226}
{"compound": "COc1ccc(CNC(=O)CNc2cc3c(cc2Cl)OCCO3)cc1", "effect": -25.81}
{"compound": "O=C(c1cccc(-n2cccn2)c1)N1CCOC(CCO)C1", "stereo": "centres unmarked", "effect": -21.94}
{"compound": "CCCS(=O)(=O)N1CCC2(CCCN(c3ncc(F)cn3)C2)C1", "stereo": "centres unmarked", "effect": -62.02}
{"compound": "CC1CN(C(=O)Nc2cc(C(F)(F)F)c[nH]c2=O)CCO1", "stereo": "centres unmarked", "effect": 2.122}
{"compound": "[H][C@@]12CCN(C(=O)C3CCOCC3)[C@]1([H])CCC(=O)N2CCOC", "effect": -65.82}
{"compound": "CN1CCCC(c2cccc(CCC(=O)NCC3(C)COC3)n2)C1", "stereo": "centres unmarked", "effect": 12.7}
{"compound": "O=C(O)C(F)(F)F.O=C(O)C(F)(F)F.[H][C@@]12CN(C(=O)c3ccnnc3)C[C@]1([H])OCCN2CCN1CCCC1", "effect": 17.78}
{"compound": "COc1ccc(S(=O)(=O)N2CCOC(Cn3ccnc3)C2)cc1.Cc1ccc(S(=O)(=O)O)cc1", "stereo": "centres unmarked", "effect": 11.97}
{"compound": "Cc1ccc(CN(C)C(=O)NCC(C)(C)S(C)(=O)=O)s1", "effect": 9.84}
{"compound": "CN1N=C(C(=O)N2CCCCC2)S(=O)(=O)c2ccccc21", "effect": -10.66}
{"compound": "[H][C@]12CCN(C(=O)Cc3cccc(OC)c3)CC[C@@]1([H])S(=O)(=O)N(CC)C2", "effect": -4.831}
{"compound": "CCOc1ccc([C@@H]2N[C@H](c3nccs3)Cc3ccsc32)cc1OC", "effect": 20.23}
{"compound": "CS(=O)(=O)N1CCCN(c2nccn3cnnc23)CC1", "effect": 11.42}
{"compound": "O=C(CCC(=O)N1CCCC1c1cccs1)N1CCc2sccc2C1", "stereo": "centres unmarked", "effect": -0.906}
{"compound": "Cc1ccc([C@@H]2CN(C(=O)c3ccc[nH]3)C[C@H]2NC(=O)C2CC2)cc1", "effect": 19.12}
{"compound": "CN(CCc1nc2cc(Cl)ccc2[nH]1)C(=O)c1ncn[nH]1", "effect": -12.01}
{"compound": "COc1cccc2c(=O)n(CCN3CCNCC3)cnc12", "effect": -2.069}
{"compound": "CCCNC(=O)CC1OCCc2ccsc21", "stereo": "centres unmarked", "effect": -20.58}
{"compound": "Cc1nc(N2CCOCC2)nc(C)c1NC(=O)c1ccco1", "effect": 2.856}
{"compound": "O=C(CN1CCCC(c2noc(C3CC3)n2)C1)N1CCCC1", "stereo": "centres unmarked", "effect": -19.35}
{"compound": "COc1ccccc1N1CCC(CNCc2ccc(C#N)cc2)C1", "stereo": "centres unmarked", "effect": 28.32}
{"compound": "CC(CCNC(=O)NCCc1ccncc1)c1ccccc1", "stereo": "centres unmarked", "effect": -9.811}
{"compound": "COc1nccnc1N1CCC2(CC1)C(=O)N(C)c1ccccc12", "effect": 12.23}
{"compound": "c1cc(-c2noc([C@@H]3CCCN3C3CCC3)n2)cc(N2CCCC2)n1", "effect": -7.976}
{"compound": "c1cnn(CCNCc2csc(-c3ccc4c(c3)OCO4)n2)c1", "effect": 37.63}

The first 6 entries again:

{"compound": "COc1ccc2c(c1)OCC(CNC(=O)NC(C)(C)C)C2", "stereo": "centres unmarked", "effect": -26.76}
{"compound": "Cc1nc(N2CCN(C)CC2)ncc1C(=O)N1CCC(O)(CO)CC1", "effect": 11.2}
{"compound": "Cc1ncc(CN2CCCC(c3cc(C(N)=O)[nH]n3)C2)s1", "stereo": "centres unmarked", "effect": -25.22}
{"compound": "Cn1cc(C(O)CNC(=O)c2ccc(F)cc2Cl)cn1", "stereo": "centres unmarked", "effect": -6.753}
{"compound": "[H][C@]12CC=C(CN3CCCn4nc(C(=O)NCCO)cc4C3)[C@]([H])(C1)C2(C)C", "effect": -5.81}
{"compound": "O=C(CCc1nnc(-c2ccccc2)o1)N1CCCC1c1ccc[nH]1", "stereo": "centres unmarked", "effect": 32.13}

From ChEMBL document CHEMBL3988442, “University of Dundee, Small-Polar-MMV Screening Library” (2021).